Assay results as given in the supplement of paper PMC3334620.
Whole data set: some 33,000 sequences, median “E-score (-0.5 to 0.5)” near -0.0059, cut for the highest 2% near 0.26. The list shows a part of the results.

Biological target: T1, Cin5 (UniProt P40917)
T1 sequence: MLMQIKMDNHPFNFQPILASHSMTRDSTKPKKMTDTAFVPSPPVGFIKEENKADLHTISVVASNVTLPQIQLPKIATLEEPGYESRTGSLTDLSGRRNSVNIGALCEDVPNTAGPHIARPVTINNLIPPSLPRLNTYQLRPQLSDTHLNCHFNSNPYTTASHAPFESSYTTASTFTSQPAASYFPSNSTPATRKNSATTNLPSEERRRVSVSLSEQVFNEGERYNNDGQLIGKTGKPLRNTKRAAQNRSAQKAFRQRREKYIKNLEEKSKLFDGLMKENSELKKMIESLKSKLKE
Experiment: PBM E-score (8-mer binding enrichment) (E-score (-0.5 to 0.5)); higher = stronger / more preferred TF binding
Details: protein concentration: 100 nM; construct: GST-full length
Summary of the method: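 Yeast transcription factors carrying a GST tag, as full-length proteins or DNA-binding domains, were produced by PURExpress in vitro transcription/translation. About 100-200 nM protein was applied to universal all-10-mer Agilent arrays, double-stranded by primer extension on fresh or once-stripped slides. Bound protein was detected with fluorescent anti-GST, and scans were normalised with masliner. The Universal PBM Analysis Suite gave each ungapped eight-base word, pooled with its reverse complement, an E-score, a modified Wilcoxon-Mann-Whitney statistic.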

Sequence | PBM E-score
GCGGTGAA | 0.0275
GGCAAACC | -0.234
AGCGTTCA | -0.164
ACCATCCA | -0.13
CCATCAAG | -0.117
GGACTCCA | -0.206
AGAAAACG | 0.106
CCCCATGA | -0.0747
CCGACACA | -0.00708
AGGCCGCA | -0.133
ATTATATA | 0.333
CGATATCA | 0.11
CACCGTCC | -0.0439
AATCGCCG | 0.0625
GCCGGTGA | -0.0128
ACTGTTCA | -0.0363
TCGCTAAA | -0.0356
CACTCACA | 0.11
AGGTCCAT | 0.086
AAGCGACA | 0.219
CGCTTGAG | -0.114
AAGGTAGT | -0.00409
AACGCAGC | -0.0283
AGTAACGA | -0.0632
AGGAACTC | 0.0409

Sequence | PBM E-score
GACACATA | 0.0373
AGATAAAA | 0.251
AATTTCGT | 0.0584
ATCCTCAA | -0.159
ATTACGCG | 0.182
ACGTCATG | 0.228
CGGGTAAC | -0.0112
ACCAGCGA | -0.114
GCAATCGA | 0.0191
CAGCCGCA | -0.119
ACCTTTGA | -0.0878
CCATGTGA | -0.0756
CACCGGAA | 0.156
CTCGTTGA | -0.154
TCCAATCA | -0.102
AAATTAGA | 0.206
GAAAGTCC | -0.194
ATTGACAG | -0.0647
GAATTCAC | 0.0227
GTATCCAA | -0.0872
AGATTTTA | 0.00061
GGAGGACC | -0.238
TATTGGGA | 0.103
CCCGATTA | 0.254
CACCGATG | -0.204

Sequence | PBM E-score
AGGACTGC | -0.339
AGACTCAG | -0.013
GGTACTAC | 0.0413
CTTCGGGC | -0.215
CCACTAAG | 0.0954
AGTGGCAT | 0.00851
AGTAGCCC | -0.222
CGCAGTTC | -0.0956
GCGAAGCA | -0.123
AGGGATGG | 0.0501
GGGAAGAC | -0.205
TAGCTAAA | -0.0851
AGTTTTGC | 0.0828
CGGACTAA | -0.00871
ACGACGCA | 0.0498
AATCCCCA | 0.175
CACACCAG | -0.0385
CTGCACAG | -0.137
CCGGAGAC | -0.0135
ACTAGTAT | 0.244
CAGAGGAC | -0.16
ATAGAACC | -0.0935
ACAGACCA | 0.178
GTATTCGA | -0.0476
GTGGGCGA | 0.0134

Quoted from the listing.
PBM E-score with ACCTTTGA reads -0.0878
PBM E-score with GTGGGCGA reads 0.0134
PBM E-score with CGGACTAA reads -0.00871
PBM E-score with CACACCAG reads -0.0385
PBM E-score with AGTAGCCC reads -0.222
PBM E-score with CTGCACAG reads -0.137

Later entries

Sequence | PBM E-score
ACGGATCT | 0.00047
CCATGAAA | 0.105
CTAGCCAC | -0.295
GCGTTGTA | 0.13
CGCGGATA | 0.241
ACTGAAAA | -0.00588
GGTAGTCA | -0.104
ATCACCAG | 0.0411
CTTCTCTC | -0.122
ACGCCTCG | -0.0228
CTTAGCTA | 0.151
AGCTACGC | -0.198
TAAAGAAA | 0.0915
ACGTTAGG | -0.0369
ACGAACGC | 0.159
TCATGGAA | 0.156
AGTAGCAC | -0.0521
GGAACTCA | -0.0233
CTGACCGC | -0.068
AAGGATAG | 0.0333
TCATAGGA | 0.00353
ACATGGGT | 0.0649
ACAAGGGT | -0.0256
AGGTTGGA | 0.12
CTTTCCTA | -0.0434

Sequence | PBM E-score
CTGTTGAA | 0.174
ATCGTGTG | 0.0547
ACTCAAGG | -0.142
TACCCCGA | 0.147
GTACAAAA | 0.187
ATTTCACC | 0.0527
CAACGTTC | -0.0398
ATATCCCA | 0.109
CGTCAATC | 0.0892
CAGTTGTA | 0.00397
AGAAGTAG | -0.0741
ATTTTGGC | 0.2
ACTGGTTA | 0.0299
ACTTTAAC | -0.089
ACAGGCCA | -0.079
ACAAGGGC | -0.224
AGTGTAAG | 0.0937
CCCTAAGG | -0.265
AGCGGAGA | 0.165
TCAGTCAA | -0.0715
GATTGCGC | 0.0315
CAGGGCGC | -0.0291
GGCGACAA | -0.178
ACAGCCAA | -0.117
CGCGGAAC | 0.199

Sequence | PBM E-score
AGGCGACG | 0.0217
GGGGACCC | -0.335
AATCTCCT | -0.0944
CCCGTGAC | -0.129
GTCGGATA | -0.075
ACTATATC | 0.214
CATAGCTA | -0.0558
CGAGGCCA | -0.13
ATGGAGAG | -0.227
ACAACAGG | -0.098
GATTTTAA | 0.0399
ATGAGTGC | 0.141
ATGCAAAT | 0.0924
CTAAAAAA | 0.157
AACCATCA | 0.0574
ATTCATAC | 0.224
GCTCTACA | 0.0349
AGTACTAC | 0.18
AGAGAAGC | 0.00101
GGCTGGCA | -0.335
AAAATCAG | 0.00782
CAAGGTAA | 0.15
CTCTTATC | 0.192
CTTATCAA | 0.278
ATGGATTG | 0.189

Two records drawn at random from the list so far, as already listed:
Sequence | PBM E-score
AGGCGACG | 0.0217
AGAGAAGC | 0.00101

Remaining list, next part

Sequence | PBM E-score
CATACCGG | 0.0193
ATATTCAT | 0.177
ACGATTGG | 0.0542
CTGGTGTA | -0.145
CCATCTCG | 0.0794
AGCGGTTA | -0.121
AGGGAGCG | -0.126
ATGCCTTC | -0.26
ATCAAGGA | 0.0502
ACCGACCA | 0.114
AAAGATCA | 0.0533
ACACCTAC | 0.0674
CCTTTCCC | -0.131
ATGTAAAA | 0.146
ACCGTCTC | -0.0405
CCGTTGAC | -0.121
ACGTATGG | -0.0978
ACTGTCTA | 0.0181
ACTTCAAG | -0.0303
AACAGGGG | -0.116
GCTTCGCA | -0.174
AGGGCAAG | -0.019
ATACGATG | 0.129
GAGCGAGC | 0.0244
ATGAACAC | 0.0544

Sequence | PBM E-score
GCAAAGAA | 0.0988
AAAAATTT | 0.00434
ACGAAAAT | 0.17
CACAGCCC | -0.288
GTGAAGGA | -0.0141
CAAACCGA | 0.072
ACCAGAGG | -0.247
ACAATAGG | 0.024
AATAAAGA | 0.113
AATGCATA | 0.116
AGCGGTAA | 0.116
ATAGGCAC | -0.159
ACTATACG | -0.00616
AGTTAGCA | 0.161
AGCCCGAT | -0.00819
TGTCCCAA | -0.102
ATCGTGGG | 0.0716
CGTATCTC | -0.0672
ATAGTCTG | 0.0407
GACTCCTC | -0.066
AGAGGCCA | -0.196
AGTGCGAG | -0.072
CCGGGATC | 0.119
TCGTCTAA | -0.103
GACTGGGA | 0.139

Sequence | PBM E-score
GACAGGGC | -0.233
ATAGCGAG | -0.116
CTCCCAAC | -0.219
CTCGTCGC | -0.011
AGGTCAAA | -0.191
ACTCAGCA | 0.161
TCTCCAGA | -0.229
AAGAGTGA | 0.0194
AGAACACT | 0.0637
GCGTCATA | 0.112
CTACCAAA | -0.0011
GGTTGCTA | -0.0578
ACCTGTGC | -0.042
GTCTTCGA | -0.105
CGAGTGAG | 0.0323
GAGTCGAC | 0.063
AGAAAGTC | 0.0218
ATAAATCG | 0.159
ACATAGTC | 0.124
